Assay in all cases: cleaved PARP positive nuclei fraction relative to DMSO control; melanoma cells; higher = more apoptosis
Common to all, as to conditions: library dose: low library concentration; 72 h

Assay [1] relates to MZ2-MEL.
Assay [2] has as its system MeWo.
Assay [3] concerns RPMI7951.
The subject of assay [4] is RVH-421.
The test system of assay [5] is SkMel28.
The subject of assay [6] is SkMel2.
Assay [7] relates to SkMel30.
The test system of assay [8] is SkMel5.
Assay [9] deals with UACC257.
Assay [10] has as its system UACC62.
Assay [11] deals with WM115.
Assay [12] concerns WM1716.
Assay [13] deals with WM1745.
Assay [14] relates to WM3526.
The subject of assay [15] is WM3619.
In assay [16] the test system is WM451Lu.

Some of the results follow. Repeats are few or missing, and single values can be far off.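 Cells were imaged in 1,536-well plates, and nuclei stained with an antibody against cleaved PARP were counted against all DNA-stained nuclei to give the apoptosis fraction. Screening doses were chosen to leave most cells alive, and resting and induced cleaved-PARP levels differ strongly between cell lines.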

For `O=C(O)[C@@H]1[O][Sb](=[O])([O][Sb]2(=[O])[O][C@H]([C@H](O)CO)[C@H](O)[C@H](C(=O)O)[O]2)[O][C@H]([C@H](O)CO)[C@@H]1O` (some centres undefined) [stibogluconate] + Oc1nc(-c2ccc(C(F)(F)F)cc2)nc2c1CSCC2 [XAV939] (first compound 2 µM, partner dose 2 µM), the “cleaved PARP positive nuclei fraction” value in assay [1] was 76.1%; in [2] it was 150%; in assay [3], 79.4%; in assay [4] it was 152%; in [5], 89.1%; in assay [6], 115%. For the same compound, the “cleaved PARP positive nuclei fraction” value in [7] came out at 135%; in assay [8] it was 193%; in assay [9], 175%; in assay [10], 63%; in assay [11] it was 114%; in assay [12] it was 472%. Further, the “cleaved PARP positive nuclei fraction” value in assay [13] came out at 277%; in assay [14], 63.9%; in assay [15], 108%; in assay [16] it was 39.3%.

Turning to `CNC(=O)c1cc(Oc2ccc(NC(=O)Nc3ccc(Cl)c(C(F)(F)F)c3)cc2)ccn1` [sorafenib] + CN(C)S(=O)(=O)c1ccc2c(c1)/C(=C/c1cc3c([nH]1)CCCC3)C(=O)N2 [SU6656] (first compound 0.4 µM, partner dose 0.4 µM), the “cleaved PARP positive nuclei fraction” value in assay [1] amounted to 137%; in assay [2], 108%; in assay [3], 87.4%; in [4], 94.2%; in [5], 232%; in assay [6], 59.6%. Besides, the “cleaved PARP positive nuclei fraction” value came to 67% in assay [7]; 75.5% in assay [8]; 399% in assay [9]; 74.9% in [10]; 81.2% in [11]; 39.6% in [12]. In addition, the “cleaved PARP positive nuclei fraction” value is 85.7% in assay [13], 62.8% in assay [14], 80.4% in assay [15] and 59.6% in [16].

Consider `CN1CCN(c2ccc3nc(-c4c(N)c5c(F)cccc5[nH]c4=O)[nH]c3c2)CC1` [Dovitinib] + O=C(Nc1ccccc1)c1cc([N+](=O)[O-])ccc1Cl [GW9662] (first compound 0.1 µM, partner dose 2 µM), for which the “cleaved PARP positive nuclei fraction” value in assay [1] was 109%; in [2] it was 59.1%; in [3] it was 153%; in [4], 76.9%; in [5] it was 167%; in [6], 69.8%. Besides, the “cleaved PARP positive nuclei fraction” value is 47.6% in [7]; 67.6% in assay [8]; 599% in assay [9]; 101% in assay [10]; 263% in [11]; 70.7% in [12]. The “cleaved PARP positive nuclei fraction” value in assay [13] came out at 96.5%; in [14] it was 93.6%; in assay [15], 81.6%; in assay [16], 138%.

In the case of `O=C(O)c1ccc2c(c1)nc(Nc1cccc(Cl)c1)c1ccncc12` + CCCCCCCCCCCC1=C(O)C(=O)C=C(O)C1=O [Embelin] (first compound 0.4 µM, partner dose 1.2 µM), the “cleaved PARP positive nuclei fraction” value in assay [1] was determined as 85%; in assay [2], 116%; in assay [3] it was 49.1%; in assay [4], 57%; in [5] it was 57.1%; in [6], 126%. For the same compound, the “cleaved PARP positive nuclei fraction” value in [7] turned out to be 36.4%; in [8] it was 152%; in [9] it was 126%; in assay [10] it was 42.8%; in [11], 94.2%; in assay [12], 76.3%. Further, the “cleaved PARP positive nuclei fraction” value was found to be 98.5% in [13], 78.6% in [14], 95% in assay [15] and 89.5% in assay [16].

As to `Cn1c(=O)n(-c2ccc(C(C)(C)C#N)cc2)c2c3cc(-c4cnc5ccccc5c4)ccc3ncc21` + CC(C)CCN1c2nc(Nc3cc(F)c(O)c(F)c3)ncc2N(C)C(=O)C1C [BID1870] (first compound 0.004 µM, partner dose 0.2 µM), the “cleaved PARP positive nuclei fraction” value stood at 90.8% in [1]; 48.2% in [2]; 61.9% in assay [3]; 88.5% in assay [4]; 176% in [5]; 98.7% in [6]. Besides, the “cleaved PARP positive nuclei fraction” value worked out at 30.2% in assay [7]; 138% in assay [8]; 139% in assay [9]; 299% in assay [10]; 155% in [11]; 117% in [12]. The “cleaved PARP positive nuclei fraction” value worked out at 105% in assay [13], 66.3% in assay [14], 79.7% in [15] and 255% in assay [16].

With `O=C(O)c1ccc2c(c1)nc(Nc1cccc(Cl)c1)c1ccncc12` + CCc1ccc(CCOc2ccc(CC3SC(=O)NC3=O)cc2)nc1 [pioglitazone] (first compound 0.4 µM, partner dose 2 µM), the “cleaved PARP positive nuclei fraction” value in assay [1] amounted to 95.3%; in assay [2] it was 60.4%; in [3] it was 86.9%; in assay [4] it was 83.9%; in [5], 107%; in assay [6], 54.2%. The “cleaved PARP positive nuclei fraction” value in assay [7] was 204%; in assay [8], 76.4%; in [9] it was 191%; in assay [10] it was 74.5%; in [11], 89.6%; in assay [12], 176%. Moreover, the “cleaved PARP positive nuclei fraction” value in [13] was 88.4%; in [14] it was 85.8%; in assay [15], 94.7%; in assay [16] it was 75.2%.

Take `O=C(O)c1ccc2c(c1)nc(Nc1cccc(Cl)c1)c1ccncc12` + COc1cc2ncnc(Nc3ccc(Oc4ccccc4)cc3)c2cc1OC [SrcI1] (first compound 0.4 µM, partner dose 2 µM): the “cleaved PARP positive nuclei fraction” value in assay [1] came out at 70.7%; in assay [2], 75.5%; in assay [3] it was 89.4%; in [4], 54.7%; in assay [5], 117%; in assay [6] it was 108%. Besides, the “cleaved PARP positive nuclei fraction” value in [7] is 29.8%; in assay [8], 70.3%; in assay [9], 138%; in assay [10], 129%; in [11] it was 44%; in assay [12], 96.3%. The “cleaved PARP positive nuclei fraction” value in assay [13] came out at 97.3%; in [14], 90.3%; in assay [15], 92.6%; in [16] it was 42.8%.

`Cc1cc(Nc2cc(N3CCN(C)CC3)nc(/C=C/c3ccccc3)n2)n[nH]1` + C=CCn1c(=O)c2cnc(Nc3ccc(N4CCN(C)CC4)cc3)nc2n1-c1cccc(C(C)(C)O)n1 [MK1775] (first compound 0.04 µM, partner dose 0.02 µM): the “cleaved PARP positive nuclei fraction” value turned out to be 70.2% in [1]; 71.2% in assay [2]; 105% in assay [3]; 43.7% in [4]; 306% in assay [5]; 87.2% in assay [6]. In addition, the “cleaved PARP positive nuclei fraction” value in assay [7] came to 78.6%; in assay [8], 68.3%; in assay [9] it was 150%; in [10], 333%; in assay [11] it was 61.6%; in assay [12] it was 54.5%. For the same compound, the “cleaved PARP positive nuclei fraction” value was 125% in assay [13], 66% in [14], 125% in assay [15] and 118% in assay [16].

In the case of `CCCS(=O)(=O)Nc1ccc(F)c(C(=O)c2c[nH]c3ncc(Cl)cc23)c1F` + NCC(=O)Nc1ccc(-n2nc(C(F)(F)F)cc2-c2ccc3c(ccc4ccccc43)c2)cc1 [OSU03012] (first compound 0.08 µM, partner dose 1 µM), the “cleaved PARP positive nuclei fraction” value in assay [1] came to 318%; in assay [2], 145%; in [3] it was 104%; in assay [4] it was 47.5%; in [5] it was 148%; in assay [6] it was 258%. Further, the “cleaved PARP positive nuclei fraction” value amounted to 146% in assay [7]; 120% in assay [8]; 131% in assay [9]; 289% in assay [10]; 162% in assay [11]; 52.6% in assay [12]. Further, the “cleaved PARP positive nuclei fraction” value in [13] worked out at 207%; in assay [14] it was 109%; in [15] it was 96.6%; in assay [16], 75.7%.

For the origin of these results see the supplement of paper PMC4604168 (melanoma cell lines).
